# Experimental data taken from patent publication US20210403576A1 (HELIXMITH, published 2021).
# Sequences of proteins named here, by UniProt entry; tags and fusion partners are left off. Residues count along the entry.
# UniProt P08581, residues 25-932: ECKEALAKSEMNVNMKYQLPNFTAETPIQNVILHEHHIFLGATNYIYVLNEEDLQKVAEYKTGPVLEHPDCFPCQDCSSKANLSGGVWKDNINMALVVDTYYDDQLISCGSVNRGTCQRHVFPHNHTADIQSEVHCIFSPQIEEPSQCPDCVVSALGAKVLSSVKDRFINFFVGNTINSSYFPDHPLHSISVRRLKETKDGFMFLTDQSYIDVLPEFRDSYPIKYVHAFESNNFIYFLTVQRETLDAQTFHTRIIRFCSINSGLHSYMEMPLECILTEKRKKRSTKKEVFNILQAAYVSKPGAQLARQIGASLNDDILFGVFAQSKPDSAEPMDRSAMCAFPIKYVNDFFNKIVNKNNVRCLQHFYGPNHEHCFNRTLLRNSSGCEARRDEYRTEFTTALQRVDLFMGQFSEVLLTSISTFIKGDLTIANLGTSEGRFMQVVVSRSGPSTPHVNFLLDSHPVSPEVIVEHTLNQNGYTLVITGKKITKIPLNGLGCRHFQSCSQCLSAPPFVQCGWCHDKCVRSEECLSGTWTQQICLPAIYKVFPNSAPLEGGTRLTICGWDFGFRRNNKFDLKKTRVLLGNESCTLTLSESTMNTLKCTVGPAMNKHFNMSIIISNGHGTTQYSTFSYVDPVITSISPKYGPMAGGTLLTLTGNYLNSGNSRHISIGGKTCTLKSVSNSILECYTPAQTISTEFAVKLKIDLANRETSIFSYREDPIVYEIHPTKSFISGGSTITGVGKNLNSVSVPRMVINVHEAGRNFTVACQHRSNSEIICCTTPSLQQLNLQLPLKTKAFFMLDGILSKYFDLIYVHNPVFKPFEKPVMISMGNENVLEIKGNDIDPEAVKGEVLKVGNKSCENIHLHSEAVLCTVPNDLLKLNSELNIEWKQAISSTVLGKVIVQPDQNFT
# Where a chain is given by its changes, count along the chain named. Results are given in words; binding and its absence hold for the method and conditions named. Some entries that bind do so weakly or less than the wild type.
# B1: VH5/Vk4 (antibody, IgG1, V domains shown)
# VH: QVQLVQSGAEVKKPGSSVKVSCQGSGYSFPTHWITWVRQAPGQGLEWMGTIDPTDSYNFYGPSFQGRVTITADSSTSTAYMELSSLRSEDTAVYYCARDGNYYDSRGYYYDTFDMWGQGTLVTVSS
# VL: EIQMTQSPGTLSLSPGERATLSCRASQGISTYLAWYQQKPGQAPRLLIYSASTLESGVPDRFSGSGSGTDFTLTISRLEPEDFATYYCQQADSFPLTFGGGTKVEIK
# notes: Full IgG1/kappa expressed in HEK 293 EBNA cells
# B2: VH2/Vk5 (antibody, IgG1, V domains shown)
# VH: EVQLVQSGAEVKKPGESLKISCKGSGYSFPTHWITWVRQMPGKGLEWMGTIDPTDSYNFYGPSFQGQVTISADKSISTAYLQWSSLKASDTAMYYCARDGNYYDSRGYYYDTFDMWGQGTLVTVSS
# VL: B1 VL with Q3V, M4L, V58I
# notes: as for B1
# B3: VH4/Vk2 (antibody, IgG1, V domains shown)
# VH: B1 VH with V93M
# VL: DIQMTQSPSSLSASVGDRVTITCRASQGISTYLAWYQQKPGKAPKLLIYSASTLESGVPSRFSGSGSGTDFTLTISSLQPEDFATYYCQQADSFPLTFGGGTKVEIK
# notes: as for B1
# B4: VH6/Vk2 (antibody, IgG1, V domains shown)
# VH: B1 VH with Q23K, G24A, S74K
# VL: B3 VL
# notes: as for B1
# B5: VH5/Vk5 (antibody, IgG1, V domains shown)
# VH: B1 VH
# VL: B1 VL with Q3V, M4L, V58I
# notes: as for B1
# B6: VH5/Vk2 (antibody, IgG1, V domains shown)
# VH: B1 VH
# VL: B3 VL
# notes: as for B1
# B7: VH6/Vk5 (antibody, IgG1, V domains shown)
# VH: B1 VH with Q23K, G24A, S74K
# VL: B1 VL with Q3V, M4L, V58I
# notes: as for B1
# B8: VH5/Vk3 (antibody, IgG1, V domains shown)
# VH: B1 VH
# VL: B1 VL with E1D, T10F
# notes: as for B1
# B9: VH4/Vk0 (antibody, IgG1, V domains shown)
# VH: B1 VH with V93M
# VL: B3 VL with S10F, K42T, F83S
# notes: as for B1
# B10: VH5/Vk0 (antibody, IgG1, V domains shown)
# VH: B1 VH
# VL: B3 VL with S10F, K42T, F83S
# notes: as for B1
# B11: VH6/Vk0 (antibody, IgG1, V domains shown)
# VH: B1 VH with Q23K, G24A, S74K
# VL: B3 VL with S10F, K42T, F83S
# notes: as for B1
# B12: VH4/Vk3 (antibody, IgG1, V domains shown)
# VH: B1 VH with V93M
# VL: B1 VL with E1D, T10F
# notes: as for B1
# B13: VH6/Vk3 (antibody, IgG1, V domains shown)
# VH: B1 VH with Q23K, G24A, S74K
# VL: B1 VL with E1D, T10F
# notes: as for B1
# B14: VH4/Vk4 (antibody, IgG1, V domains shown)
# VH: B1 VH with V93M
# VL: B1 VL
# notes: as for B1
# B15: VH3/Vk2 (antibody, IgG1, V domains shown)
# VH: B1 VH with M81L, E82Q, L83W, R87K, S88A, E89S, V93M
# VL: B3 VL
# notes: as for B1
# B16: VH6/Vk4 (antibody, IgG1, V domains shown)
# VH: B1 VH with Q23K, G24A, S74K
# VL: B1 VL
# notes: as for B1
# B17: VH4/Vk5 (antibody, IgG1, V domains shown)
# VH: B1 VH with V93M
# VL: B1 VL with Q3V, M4L, V58I
# notes: as for B1
# B18: VH2/Vk2 (antibody, IgG1, V domains shown)
# VH: B2 VH
# VL: B3 VL
# notes: as for B1
# B19: VH2/Vk0 (antibody, IgG1, V domains shown)
# VH: B2 VH
# VL: B3 VL with S10F, K42T, F83S
# notes: as for B1
# B20: VH0/Vk2 (antibody, IgG1, V domains shown)
# VH: B2 VH with E1Q, K19R, K23Q, Q67H, K74S, I76S
# VL: B3 VL
# notes: as for B1
# B21: VH0/Vk0 (antibody, IgG1, V domains shown)
# VH: B2 VH with E1Q, K19R, K23Q, Q67H, K74S, I76S
# VL: B3 VL with S10F, K42T, F83S
# notes: Full IgG1/kappa with the variable domains of 1E4; also called 1E4 antibody variant including the constant domain where the residues were substituted
# Biological target: T1, human c-Met (Sino Biological) (human, UniProt P08581 25-932, limits assumed)
# T1 construct: Analyte in the Biacore assay; also called antigen (c-Met); printed as "human c-Met antibody (Sino Biological, Beijing, China)"
# Assay: SPR (Biacore T200)
row,binding,Binder
1,binds,B1
2,binds,B2
3,binds,B3
4,binds,B4
5,binds,B5
6,binds,B6
7,binds,B7
8,binds,B8
9,binds,B9
10,binds,B10
11,binds,B11
12,binds,B12
13,binds,B13
14,binds,B14
15,binds,B15
16,binds,B16
17,binds,B17
18,binds,B18
19,binds,B19
20,binds,B20
21,binds,B21
